Experiment [1] has as its target FLAG-tagged PGRMC1 (human progesterone receptor membrane component 1) (human) (UniProt O00264). The experiment is described as follows: affinity purification with mass spectrometry; FLAG-PGRMC1 stably expressed in HepG2 cells as bait; isolated mitochondria lysed, affinity purification by FLAG; prey filtered with CRAPome, fold-change threshold 1.5; empty-vector cells as control.

Protein sequences, listed by entry. Tags and fused reporters are not part of them. Residues count along the entry.
UniProt O00264: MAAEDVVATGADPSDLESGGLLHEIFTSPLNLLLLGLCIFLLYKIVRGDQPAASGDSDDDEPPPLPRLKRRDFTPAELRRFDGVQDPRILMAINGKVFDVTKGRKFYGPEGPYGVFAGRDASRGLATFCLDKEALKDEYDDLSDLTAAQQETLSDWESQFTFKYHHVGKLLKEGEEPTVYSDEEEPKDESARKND
UniProt P33527: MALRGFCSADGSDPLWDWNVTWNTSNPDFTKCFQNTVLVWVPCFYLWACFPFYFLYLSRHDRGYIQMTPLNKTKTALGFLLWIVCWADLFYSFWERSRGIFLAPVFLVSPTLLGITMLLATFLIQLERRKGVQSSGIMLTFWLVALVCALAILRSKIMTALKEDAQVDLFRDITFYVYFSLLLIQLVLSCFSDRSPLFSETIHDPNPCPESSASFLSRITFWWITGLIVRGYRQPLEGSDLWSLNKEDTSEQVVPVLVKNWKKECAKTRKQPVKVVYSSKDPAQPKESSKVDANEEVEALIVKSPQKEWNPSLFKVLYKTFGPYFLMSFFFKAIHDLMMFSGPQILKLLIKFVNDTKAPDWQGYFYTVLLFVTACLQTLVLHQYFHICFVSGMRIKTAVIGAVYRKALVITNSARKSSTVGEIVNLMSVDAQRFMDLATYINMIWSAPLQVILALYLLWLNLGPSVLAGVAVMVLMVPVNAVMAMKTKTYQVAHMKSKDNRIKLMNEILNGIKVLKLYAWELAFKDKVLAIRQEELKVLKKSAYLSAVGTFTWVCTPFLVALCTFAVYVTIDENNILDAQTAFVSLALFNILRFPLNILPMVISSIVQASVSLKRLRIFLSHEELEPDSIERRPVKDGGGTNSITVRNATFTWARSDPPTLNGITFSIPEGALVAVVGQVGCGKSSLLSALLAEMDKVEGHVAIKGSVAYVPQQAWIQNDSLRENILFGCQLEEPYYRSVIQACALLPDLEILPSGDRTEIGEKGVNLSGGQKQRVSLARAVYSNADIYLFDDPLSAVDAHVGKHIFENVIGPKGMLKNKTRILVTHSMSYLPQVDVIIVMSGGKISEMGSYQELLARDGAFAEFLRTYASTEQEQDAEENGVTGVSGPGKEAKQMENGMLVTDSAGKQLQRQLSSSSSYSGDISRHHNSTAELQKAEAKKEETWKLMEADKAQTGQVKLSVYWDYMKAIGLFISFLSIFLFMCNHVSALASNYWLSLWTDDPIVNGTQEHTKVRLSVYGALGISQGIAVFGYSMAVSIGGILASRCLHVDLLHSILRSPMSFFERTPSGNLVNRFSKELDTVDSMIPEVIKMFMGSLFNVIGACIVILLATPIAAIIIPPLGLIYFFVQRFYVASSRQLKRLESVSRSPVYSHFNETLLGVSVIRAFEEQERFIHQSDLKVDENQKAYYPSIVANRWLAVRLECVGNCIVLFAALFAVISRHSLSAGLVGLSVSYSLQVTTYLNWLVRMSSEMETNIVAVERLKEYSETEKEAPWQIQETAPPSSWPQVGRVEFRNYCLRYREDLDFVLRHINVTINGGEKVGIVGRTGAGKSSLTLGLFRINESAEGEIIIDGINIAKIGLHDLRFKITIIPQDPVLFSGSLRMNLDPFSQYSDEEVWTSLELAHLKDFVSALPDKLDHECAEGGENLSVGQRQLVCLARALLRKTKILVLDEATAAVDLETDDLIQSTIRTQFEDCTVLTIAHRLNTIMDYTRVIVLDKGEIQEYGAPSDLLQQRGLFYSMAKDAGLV
UniProt O75027, residues 23-752: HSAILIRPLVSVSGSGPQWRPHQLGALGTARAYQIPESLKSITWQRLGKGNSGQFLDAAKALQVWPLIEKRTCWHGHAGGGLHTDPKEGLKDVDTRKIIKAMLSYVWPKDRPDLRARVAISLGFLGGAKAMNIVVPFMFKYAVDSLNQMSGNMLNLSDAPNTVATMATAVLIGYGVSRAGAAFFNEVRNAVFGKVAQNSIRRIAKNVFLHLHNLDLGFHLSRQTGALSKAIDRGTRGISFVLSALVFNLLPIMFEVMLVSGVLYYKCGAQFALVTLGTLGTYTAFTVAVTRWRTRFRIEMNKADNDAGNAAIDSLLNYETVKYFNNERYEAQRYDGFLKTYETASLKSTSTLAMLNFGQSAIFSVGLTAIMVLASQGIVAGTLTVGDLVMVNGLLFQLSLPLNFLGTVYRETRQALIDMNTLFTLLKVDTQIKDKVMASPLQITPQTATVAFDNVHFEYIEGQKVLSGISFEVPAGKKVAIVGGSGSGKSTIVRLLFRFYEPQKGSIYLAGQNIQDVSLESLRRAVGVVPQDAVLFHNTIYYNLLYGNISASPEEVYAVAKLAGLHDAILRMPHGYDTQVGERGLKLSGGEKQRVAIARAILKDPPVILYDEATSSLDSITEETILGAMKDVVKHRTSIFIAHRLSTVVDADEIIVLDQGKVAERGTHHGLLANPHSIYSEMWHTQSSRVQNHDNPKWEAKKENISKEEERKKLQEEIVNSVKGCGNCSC
UniProt P61619: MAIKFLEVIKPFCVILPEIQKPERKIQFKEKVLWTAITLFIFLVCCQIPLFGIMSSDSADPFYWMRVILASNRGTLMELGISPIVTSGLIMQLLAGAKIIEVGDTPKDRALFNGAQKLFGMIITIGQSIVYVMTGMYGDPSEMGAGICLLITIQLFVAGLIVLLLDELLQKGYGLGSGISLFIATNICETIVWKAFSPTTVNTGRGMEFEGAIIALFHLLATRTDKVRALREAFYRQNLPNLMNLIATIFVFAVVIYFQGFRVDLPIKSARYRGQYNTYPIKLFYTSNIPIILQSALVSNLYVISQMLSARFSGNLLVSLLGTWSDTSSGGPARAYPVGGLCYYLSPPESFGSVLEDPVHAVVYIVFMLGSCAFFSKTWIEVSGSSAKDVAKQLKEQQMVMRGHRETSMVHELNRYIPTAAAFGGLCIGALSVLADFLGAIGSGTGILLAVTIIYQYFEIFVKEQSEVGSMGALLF
UniProt Q8IXI2: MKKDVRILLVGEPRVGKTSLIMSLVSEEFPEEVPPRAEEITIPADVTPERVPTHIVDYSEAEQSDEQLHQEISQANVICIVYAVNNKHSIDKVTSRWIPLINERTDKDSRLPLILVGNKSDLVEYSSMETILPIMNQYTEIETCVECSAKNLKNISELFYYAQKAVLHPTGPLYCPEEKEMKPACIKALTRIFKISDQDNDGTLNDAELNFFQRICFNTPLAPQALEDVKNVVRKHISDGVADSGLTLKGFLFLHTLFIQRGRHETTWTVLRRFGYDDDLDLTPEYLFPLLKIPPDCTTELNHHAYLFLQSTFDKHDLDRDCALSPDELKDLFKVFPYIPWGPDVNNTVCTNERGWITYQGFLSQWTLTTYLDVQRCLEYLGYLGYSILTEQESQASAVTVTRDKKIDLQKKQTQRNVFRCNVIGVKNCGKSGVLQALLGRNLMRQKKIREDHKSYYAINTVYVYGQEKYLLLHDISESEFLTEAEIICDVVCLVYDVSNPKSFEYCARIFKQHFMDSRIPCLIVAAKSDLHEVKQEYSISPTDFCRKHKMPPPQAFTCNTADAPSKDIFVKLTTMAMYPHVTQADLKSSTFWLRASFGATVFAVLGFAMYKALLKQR

Experiment [2] shares this target. The experiment in a line: affinity purification with mass spectrometry; FLAG-PGRMC1 stably expressed in HEK293T cells as bait; isolated mitochondria lysed, affinity purification by FLAG; prey filtered with CRAPome, fold-change threshold 2; empty-vector cells as control.
For experiment [3] the target is unchanged. The experiment in a line: affinity purification with mass spectrometry; FLAG-PGRMC1 (human) stably expressed in murine MEL cells as bait; isolated mitochondria lysed, affinity purification by FLAG; prey filtered with CRAPome, fold-change threshold 1.5; empty-vector cells as control.

No constants are given. Whether binding was seen depends on the method and setting. In cells and extracts the contact can be indirect. Here binding means that the protein was enriched with, or labelled near, the bait; the list need not be complete.

As to “ABCC1 (human) (from UniProt P33527 1-1531)”, the binding entry in experiment [1] and in experiment [2] was “binds” throughout.

For “ARL8B (human) (from UniProt Q9NVJ2 1-186)”, the binding entry in experiment [1] and in experiment [2] was “binds” throughout.

Turning to “ABCB7 (human) (from UniProt O75027 23-752)”, the binding entry in experiment [1] and in experiment [2] was “binds” throughout.

On to “SEC63 (human) (from UniProt Q9UGP8 1-760)”, for which the binding entry in experiment [1] and in experiment [2] was “binds” throughout.

As to “SEC61A1 (human) (from UniProt P61619 1-476)”, the binding result in experiment [1] and in experiment [2] was “binds” each time.

In the case of “RHOT1 (human) (from UniProt Q8IXI2 1-618)”, the binding entry in experiment [1] and in experiment [2] was “binds” in each case.

B1: SEC63 (mouse) (protein, UniProt Q8VHE0 1-760)
chain: MAGQQFQYDDSGNTFFYFLTSFVGLIVIPATYYLWPRDQNAEQIRLKNIRKVYGRCMWYRLRLLKPQPNIIPTVKKIVLLAGWALFLFLAYKVSKTDREYQEYNPYEVLNLDPGATVAEIKKQYRLLSLKYHPDKGGDEVMFMRIAKAYAALTDEESRKNWEEFGNPDGPQATSFGIALPAWIVDQKNSILVLLVYGLAFMVILPVVVGSWWYRSIRYSGDQILIRTTQIYTYFVYKTRNMDMKRLIMVLAGASEFDPQYNKDSTSRPTDNILIPQLIREIGSINLKKNEPPLTCPYSLKARVLLLSHLARMKIPETLEEDQQFMLKKCPALLQEMVNVICQLIIMARSREEREFRAPTLASLENCMKLSQMAVQGLQQFKSPLLQLPHIEEDNLRRVSNHKKYKIKTIQDLVSLKESDRHSLLHFLEDEKYEEVMAVLGSFPYVTMDIKSQVLDDEDSNNITVGSLVTVLVKLTRQTMAEVFEKEQSICAAEEQPTEDGQSDANKIKAKGGWQQKNKGPKKMPKSKKKKPLKKKPTTVPLPQAKQQKQKQANGVVGSEAAIKEEEDDISDKGSDSEEEETNRDSQSEKEDGSDRESDREQDEKQSKDDEAEWQELQQSIQRKERALLETKSKITHPVYSLYFPEEKQEWWWLYIADRKEQTLISMPYHVCTLKDTEEVELKFPAPGKPGNYQYTVFLRSDSYMGLDQIKPLKLEVHEAKPVPENHPQWDTAIEGDEDQEDSEGFEDSFEEEEEEEEGGD
In the case of B1, the binding entry in experiment [3] was “binds”.

B2: DDOST (human) (protein, UniProt P39656 43-456)
chain: SGPRTLVLLDNLNVRETHSLFFRSLKDRGFELTFKTADDPSLSLIKYGEFLYDNLIIFSPSVEDFGGNINVETISAFIDGGGSVLVAASSDIGDPLRELGSECGIEFDEEKTAVIDHHNYDISDLGQHTLIVADTENLLKAPTIVGKSSLNPILFRGVGMVADPDNPLVLDILTGSSTSYSFFPDKPITQYPHAVGKNTLLIAGLQARNNARVIFSGSLDFFSDSFFNSAVQKAAPGSQRYSQTGNYELAVALSRWVFKEEGVLRVGPVSHHRVGETAPPNAYTVTDLVEYSIVIQQLSNGKWVPFDGDDIQLEFVRIDPFVRTFLKKKGGKYSVQFKLPDVYGVFQFKVDYNRLGYTHLYSSTQVSVRPLQHTQYERFIPSAYPYYASAFSMMLGLFIFSIVFLHMKEKEKSD
With B2, the binding result in experiment [1] and in experiment [2] was “binds” throughout.

B3: ACSL1 (human) (protein, UniProt P33121 1-698)
chain: MQAHELFRYFRMPELVDFRQYVRTLPTNTLMGFGAFAALTTFWYATRPKPLKPPCDLSMQSVEVAGSGGARRSALLDSDEPLVYFYDDVTTLYEGFQRGIQVSNNGPCLGSRKPDQPYEWLSYKQVAELSECIGSALIQKGFKTAPDQFIGIFAQNRPEWVIIEQGCFAYSMVIVPLYDTLGNEAITYIVNKAELSLVFVDKPEKAKLLLEGVENKLIPGLKIIVVMDAYGSELVERGQRCGVEVTSMKAMEDLGRANRRKPKPPAPEDLAVICFTSGTTGNPKGAMVTHRNIVSDCSAFVKATENTVNPCPDDTLISFLPLAHMFERVVECVMLCHGAKIGFFQGDIRLLMDDLKVLQPTVFPVVPRLLNRMFDRIFGQANTTLKRWLLDFASKRKEAELRSGIIRNNSLWDRLIFHKVQSSLGGRVRLMVTGAAPVSATVLTFLRAALGCQFYEGYGQTECTAGCCLTMPGDWTAGHVGAPMPCNLIKLVDVEEMNYMAAEGEGEVCVKGPNVFQGYLKDPAKTAEALDKDGWLHTGDIGKWLPNGTLKIIDRKKHIFKLAQGEYIAPEKIENIYMRSEPVAQVFVHGESLQAFLIAIVVPDVETLCSWAQKRGFEGSFEELCRNKDVKKAILEDMVRLGKDSGLKPFEQVKGITLHPELFSIDNGLLTPTMKAKRPELRNYFRSQIDDLYSTIKV
In the case of B3, the binding result in experiment [1] and in experiment [2] was “binds” throughout.

B4: ARL8B (mouse) (protein, UniProt Q9CQW2 1-186)
chain: MLALISRLLDWFRSLFWKEEMELTLVGLQYSGKTTFVNVIASGQFSEDMIPTVGFNMRKVTKGNVTIKIWDIGGQPRFRSMWERYCRGVNAIVYMIDAADREKIEASRNELHNLLDKPQLQGIPVLVLGNKRDLPNALDEKQLIEKMNLSAIQDREICCYSISCKEKDNIDITLQWLIQHSKSRRS
B4: the binding result in experiment [3] is “binds”.

B5: ABCD3 (mouse) (protein, UniProt P55096 1-659)
chain: MAAFSKYLTARNTSLAGAAFLLLCLLHKRRRALGLHGKKSGKPPLQNNEKEGKKERAVVDKVFLSRLSQILKIMVPRTFCKETGYLLLIAVMLVSRTYCDVWMIQNGTLIESGIIGRSSKDFKRYLFNFIAAMPLISLVNNFLKYGLNELKLCFRVRLTRYLYEEYLQAFTYYKMGNLDNRIANPDQLLTQDVEKFCNSVVDLYSNLSKPFLDIVLYIFKLTSAIGAQGPASMMAYLLVSGLFLTRLRRPIGKMTIMEQKYEGEYRYVNSRLITNSEEIAFYNGNKREKQTIHSVFRKLVEHLHNFIFFRFSMGFIDSIIAKYVATVVGYLVVSRPFLDLAHPRHLHSTHSELLEDYYQSGRMLLRMSQALGRIVLAGREMTRLAGFTARITELMQVLKDLNHGRYERTMVSQQEKGIEGAQASPLVPGAGEIINTDNIIKFDHVPLATPNGDILIQDLSFEVRSGANVLICGPNGCGKSSLFRVLGELWPLFGGRLTKPERGKLFYVPQRPYMTLGTLRDQVIYPDGKEDQKKRGISDQVLKEYLDNVQLGHILEREGGWDSVQDWMDVLSGGEKQRMAMARLFYHKPQFAILDECTSAVSVDVEDYIYSHCRKVGITLFTVSHRKSLWKHHEYYLHMDGRGNYEFKKITEDTVEFGS
Take B5: the binding result in experiment [3] is given as “binds”.

B6: RPN1 (mouse) (protein, UniProt Q91YQ5 26-608)
chain: SSEAPPLVNEDVKRTVDLSSHLAKVTAEVVLVHPGGGSTSRASSFVLALEPELESRLAHLGVQIKGEDEEDNNLEVRETKIKGKSGRFFTVKLPVALDPGSKISVVVETVYTHVLHPYPTQITQSEKQFVVFEGNHYFYSPYPTKTQTMRVKLASRNVESYTKLGNPSRSEDVLDYGPFKDIPAYSQDTFKVHYENNSPFLTITSMTRVIEVSHWGNIAVEENVDLKHTGAVLKGPFSRYDYQRQPDSGISSIRSFKTILPAAAQDVYYRDEIGNVSTSHLLILDDSVEMEIRPRFPLFGGWKTHYIVGYNLPSYEYLYNLGDQYALKMRFVDHVFDEQVIDSLTVKIILPEGAKNIQVDSPYDISRAPDELHYTYLDTFGRPVIVAYKKNLVEQHIQDIVVHYTFNKVLMLQEPLLVVAAFYILFFTVIIYVRLDFSITKDPAAEARMKVACITEQVLTLVNKRLGLYRHFDETVNRYKQSRDISTLNSGKKSLETEHKAVTSEIAVLQSRLKTEGSDLCDRVSEMQKLDAQVKELVLKSAVEAERLVAGKLKKDTYLENEKLSSGKRQELVTKIDHILDAL
Regarding B6, the binding entry in experiment [3] is recorded as “binds”.

B7: BDH1 (mouse) (protein, UniProt Q80XN0 47-343)
chain: ASQADAASGKAILITGCDSGFGFSLAKHLHSKGFLVFAGCLMKDKGDAGVKELDSLKSDRLRTIQLNVCNSEEVEKAVETIRSGLKDPEKGMWGLVNNAGISTFGEVEFTSMETYKEVAEVNLWGTVRTTKSFLPLLRRAKGRVVNISSMLGRMANPARSPYCITKFGIEAFSDCLRYEMHPLGVKVSVVEPGNFIAATSLYSPERIQAIAKKMWDDLPEVVRKDYGRKYFDEKIAKMETYCNSGSTDTSSVINAVTHALTAATPYTRYHPMDYYWWLRMQIMTHFPGAISDKIYIH
Regarding B7, the binding entry in experiment [3] was “binds”.

B8: ferrochelatase (mouse) (enzyme, UniProt P22315 54-422)
chain: TTKPQAQPERRKPKTGILMLNMGGPETLGEVQDFLQRLFLDRDLMTLPIQNKLAPFIAKRRTPKIQEQYRRIGGGSPIKMWTSKQGEGMVKLLDELSPATAPHKYYIGFRYVHPLTEEAIEEMERDGLERAIAFTQYPQYSCSTTGSSLNAIYRYYNEVGQKPTMKWSTIDRWPTHPLLIQCFADHILKELNHFPEEKRSEVVILFSAHSLPMSVVNRGDPYPQEVGATVHKVMEKLGYPNPYRLVWQSKVGPVPWLGPQTDEAIKGLCERGRKNILLVPIAFTSDHIETLYELDIEYSQVLAQKCGAENIRRAESLNGNPLFSKALADLVHSHIQSNKLCSTQLSLNCPLCVNPVCRKTKSFFTSQQL
Regarding B8, in experiment [3], the binding result is “binds”.

B9: TMEM214 (mouse) (protein, UniProt Q8BM55 1-687)
chain: MAARSAGSGGWEVVKRGRRPGASSGGRGGGGGSDRRALGEANGVLKYDLSSPIQTTSTLYERGFEKIMKRQNKEQVPPPAAESKKPINKKQPKKVTAVPSQNQKQGPFRRLEDALKALDVAALQKELDKSQSVFTGNPSVWLKDLASYLNYKLQTPRMEPTLSQYPHDYPYSLVSRELRGIIRGLLTKAAGSVELFFDHCLFTMLQELDKTPGESLHGYRICIQAVLQDKPKIVTSNLDKFLELLRSHQSRPAKCLTIMWALGQAGFTNLTEGLKVWLGIMLPVLGIKALSPFAIAYLDRLLLMHPNLTKGFGMIGPKDFFPLLDFAYMPNNSLSPSLQEQLCQLFPRLKVLAFGAKPESSLHTYFPSFLSRATPSCPAAMKKELLASLTQCLTVDPLSTSVWRQLYPKHLSQSSLLLEHLLKSWEHIPKKARKSLQETIQSLKVTNQELLKKGSGGSEHVLTCDTACKGLLQRARGPRPPWARLFLLLLVFAVGFLCHDLRSNSSLQASLTGRLLRSSGLLPVGQQVCARLSSYSLQSYNWLQETLPACGSHLLAVVQPSLQLAWTHIYAIFSFLSAHCASYLACFSDSLAGFFQRVQLPEALQQLFHALKELLLLFCHSVLLPTWHLLLAALAQVQEHCHEACRGDVTWDCIKTQLSRAAQWTWLCLQDVTVAFLDWALTMISQQ
On to B9, for which the binding entry in experiment [3] is recorded as “binds”.
